In US20260027152A1:
These are yes or no findings as the source states them, for the method shown. Some binding calls cover weakened binding; strength is not graded here.

Protein sequences, listed by entry. Tags and fused reporters are not part of them. Residues count along the entry.
UniProt Q5VWK5, residues 24-353: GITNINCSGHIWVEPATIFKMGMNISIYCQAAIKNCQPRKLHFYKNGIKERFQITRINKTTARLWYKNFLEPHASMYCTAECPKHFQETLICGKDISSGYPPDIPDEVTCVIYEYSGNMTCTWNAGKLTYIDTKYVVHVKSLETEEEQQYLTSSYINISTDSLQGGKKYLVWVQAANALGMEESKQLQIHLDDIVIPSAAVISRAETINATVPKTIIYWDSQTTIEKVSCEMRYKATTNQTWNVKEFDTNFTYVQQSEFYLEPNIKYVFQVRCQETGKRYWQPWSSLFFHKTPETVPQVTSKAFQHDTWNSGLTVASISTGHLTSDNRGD

What was measured:
[1] = biological target: human IL23Ra (coated on beads) (human) (UniProt Q5VWK5); experiment: flow cytometry: biotinylated scFv on IL23Ra-coated beads, detected with APC-labelled streptavidin, median fluorescence against conc. scFv [nM]
[2] = biological target: human IL23Ra (coated on beads) (human) (UniProt Q5VWK5); experiment: flow cytometry; biotinylated scFv on IL23Ra-coated beads
[3] = biological target: T1, mouse IL23Ra (coated on beads) (mouse) (UniProt Q8K4B4); experiment: as above
T1 sequence (looked up): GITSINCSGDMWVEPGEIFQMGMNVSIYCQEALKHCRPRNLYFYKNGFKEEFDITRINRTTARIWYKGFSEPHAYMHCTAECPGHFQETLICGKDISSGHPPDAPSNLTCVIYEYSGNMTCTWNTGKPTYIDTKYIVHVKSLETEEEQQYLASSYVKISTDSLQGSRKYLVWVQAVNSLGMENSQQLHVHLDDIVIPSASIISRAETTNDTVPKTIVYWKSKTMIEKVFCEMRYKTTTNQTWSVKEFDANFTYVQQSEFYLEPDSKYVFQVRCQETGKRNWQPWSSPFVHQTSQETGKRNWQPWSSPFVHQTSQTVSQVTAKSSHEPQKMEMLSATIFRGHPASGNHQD

[4] = biological target: human IL23Ra (coated on beads) (human) (UniProt Q5VWK5); experiment: flow cytometry; biotinylated scFv on IL23Ra-coated beads (FIG. 14)
[5] = biological target: T1, mouse IL23Ra (coated on beads) (mouse); experiment: as above
[6] = biological target: human IL23Ra (coated on beads) (human) (UniProt Q5VWK5); experiment: no assay named in the sentence
[7] = biological target: T1, mouse IL23Ra (coated on beads) (mouse); experiment: no assay named in the sentence

Measured: binding

B1: anti-IL-23R scFv IL23RLamS4-G3 (scFv)
scFv: QSVLTQPPSVSGAPGQRVTISCTGSSSNIGAGYDVHWYQQLPGTAPKLLIYGNNNRPSGVPDRFSGSKSGTSASLAITGLQAEDEADYYCQSYDTGLSAWVFGGGTKLTVLGGGGSGGGGSGGGGSQLQLQESGPGLVKPSETLSLTCTVSGGSITSSNYYWGWIRQPPGKGLEWIGSIYYSGNTYYNPSLKSRVTISVDTSKNQFSLKLSSVTAADTAVYYCAREWSPYESEGFDYWGQGTLVTVSS
modifications: biotinylated (sites not given)
binds: [1] | [2] | [3] | [4] | [5] | [6] | [7]
